The target in this assay is SAUR32 (tomato), fusion from pGBKT7 for yeast two-hybrid (tomato (Solanum lycopersicum L., cv. Tianfei 9)) (UniProt I3RSI1). Briefly: two-hybrid; yeast AH109 co-transformed with PP2C72-pGADT7 and pGBKT7-SAUR32; 30°C, 3 days; growth and blue colour on SD-Trp-Leu-His-Ade with x-α-gal (methods: SD-Leu-Trp-His).

From publication PMC12417194 come the findings set out here.

No constants are given. Whether binding was seen depends on the method and setting. Binding calls can cover weak binding; strength is not graded here.

Turning to “PP2C72 (tomato), fusion from pGADT7 for yeast two-hybrid (from UniProt A0A3Q7HQJ8) (enzyme)”, the binding result is reported as “binds”.
